We go through 3 substances from patent publication US20110046348 (published 2011).

* marks the point of attachment. Boc = CC(C)(C)OC(=O)*; NHNH2 = NN*

The data set can be described thus: general procedure: Fmoc solid-phase peptide synthesis; Fmoc-Gly-SASRIN resin (Bachem, substitution 0.79 mmol/g). Particulars: whole synthesis, capillary electrophoresis; for crude HPLC purity: analytical RP HPLC, LC-MS.

In the case of Boc-FD(NHNH2)K(Boc)D(NHNH2)FAFG-NHNH2, the “crude HPLC purity” value is reported as 84%.

As to “Boc-Phe-Asp(NH—NH2)-Lys(Boc)-Asp(OMpe)-Phe-Ala-Phe-Gly-NH—NH2”, the “crude HPLC purity” value is 56%.

As to “[GLP-1] [[D-Ala^2, Gly^31]-PEG12]-Gly-N2H3”, the “final purity (method not given)” value was “greater than 94%”.
